Results as given in PubChem BioAssay AID504467 (National Center for Advancing Translational Sciences (NCATS), 2011).
The whole screen tested about 330,000 compounds, of which about 7,700 (2.3%) were called active. The inconclusive results got no clear call from the source; some entries with a clear call stand among them for comparison. Calls come from the whole dose curve; as a rule, active = well fitted inhibition curve with a large enough effect; inconclusive = small, poorly fitted or top-dose-only effect, or effect the other way; inactive = flat fitted curve, though single readings scatter. A potency beside an inconclusive call is a rough fit, not a confirmed value.

Experiment: qHTS screen for small molecules that inhibit ELG1-dependent DNA repair in human embryonic kidney (HEK293T) cells expressing luciferase-tagged ELG1; note: nearly all actives have a fitted effect of over 55% in size
Settings: HEK293T ELG1-luciferase reporter, luminescence, 16 h, DNA damage induced by 5-fluorouridine; activity change, negative = inhibition: at 46.1 µM (top of the series)
Outline: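 In this reporter screen, reduction of luminescence relative to DMSO vehicle indicated activity. Compounds and 5-fluorouridine were added together to 2,000 cells per well, incubated for 16 hr at 37 °C, then developed with ONE-Glo.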
% is set by controls: 0 for no effect and ±100 for the full control effect; potency is the fitted concentration of half-maximal effect.

Structure (SMILES) | Potency | activity change, negative = inhibition
O=c1[nH]c(/C=C/c2ccc(OC(F)F)cc2)nc2c1cnn2-c1ccccc1 | inconclusive: 23.1 µM [activator, partial curve, poor fit] | 
O=C(CCSCc1ccccc1Cl)N1CCN(c2cccc(Cl)c2)CC1 |  | inactive: -13.1%
O=C(NCCSc1ccccn1)c1ccc(Cl)cc1 | inconclusive: 2.59 µM [activator, full curve] | 
C/C(Cn1nc([N+](=O)[O-])cc1C)=N\NC(=O)c1cccc(Br)c1 |  | inactive: -14.6%
COC(=O)C1=C(C)N(c2ccc(C)cc2)/C(=C/c2cccs2)C1=O | inconclusive: 23.1 µM [inhibitor, single point] | 
N#CCc1ccc(NC(=O)CSc2nnc(C3CC3)n2C2CC2)cc1 | inconclusive: 14.6 µM [activator, single point] | 
NC(=O)CSc1nc(-c2ccccc2Cl)ns1 | inconclusive: 18.4 µM [activator, partial curve] | 
CC1CCCN(C(=O)c2ccc3c(=O)n(C4CCCC4)c(=S)[nH]c3c2)C1 (stereo unspecified) | inconclusive: 9.2 µM [inhibitor, partial curve, poor fit] | 
COc1cc2c(cc1OC)C(c1cc(C)ccc1C)CC(=O)N2 (stereo unspecified) |  | inactive: -0.146%
COc1cc(CNc2ccc3[nH]c(=O)[nH]c3c2)ccc1OCc1ccccc1F | inconclusive: 1.16 µM [inhibitor, full curve, poor fit] | 
CC1CN(C(=O)Nc2cccc(C(F)(F)F)c2)CC(C)O1 (stereo unspecified) |  | inactive: 5.08%
COc1ccc(S(=O)(=O)N2CCC(N3CCN(Cc4ccccc4)CC3)CC2)cc1 | inconclusive: 1.03 µM [activator, full curve, poor fit] | 
CCCC[C@@H]1CNC(=S)N1CC1CCCCC1 |  | inactive: -2.83%
COc1ccc(-c2[nH]c3ccccc3c2SCCNC(=O)c2ccccc2)cc1 | active: 16.4 µM | 
COc1ccc(C(=O)Nc2nc(C)c(C)s2)cc1OC | inconclusive: 4.11 µM [activator, partial curve] | 
Cc1cc(NC(=O)c2ccccc2Cl)no1 | inconclusive: 12.6 µM [activator, partial curve] | 
CC(C)(C)c1cc(-c2ccccc2)no1 | inconclusive: 16.4 µM [activator, single point] | 
CC1CCCN(C(=O)CSCC(=O)Nc2nc(-c3cccs3)cs2)C1 (stereo unspecified) | inconclusive: 18.4 µM [activator, single point] | 

Structure (SMILES) | Potency | activity change, negative = inhibition
Cc1ccc(C(=O)NCC#N)cc1 |  | inactive: -1.41%
Cc1cc(SCC(=O)c2cccc([N+](=O)[O-])c2)nc(=O)[nH]1 | inconclusive: 9.2 µM [activator, partial curve] | 
O=[N+]([O-])c1c(NCCO)cc(N2CCCCC2)c2nonc12 |  | inactive: 8.15%
CC(C)N(Cc1ccccc1)C(=O)CN1C(=O)COc2ccc(S(=O)(=O)NC3CCCC3)cc21 |  | inactive: -3.62%
COc1ccc([N+](=O)[O-])cc1NC(=O)c1ccccc1N(C)S(C)(=O)=O |  | inactive: 12.2%
Cc1ccc(Cl)cc1-n1ncc2c(NNC(=O)c3ccco3)ncnc21 |  | inactive: -6.73%
CNC(=O)COc1ccc(S(=O)(=O)N2CCCC2)cc1 |  | inactive: 9.55%
Cc1cc(C)c(NC(=O)CNC(=O)Cc2ccc(S(=O)(=O)N3CCOCC3)s2)c(C)c1 | inconclusive: 5.17 µM [activator, partial curve, poor fit] | 
COc1ccc(C(O)(C2CCCCC2)C(CN2CCOCC2)c2ccccc2)cc1 (stereo unspecified) | inconclusive: 20.6 µM [inhibitor, partial curve] | 
O=[N+]([O-])c1cc([N+](=O)[O-])c(Oc2cncc(Cl)c2)cc1NC1CCCCCCC1 | inconclusive: 29.1 µM [activator, single point] | 
CCN(CC)C(C(=O)NC1CCCCC1)c1ccc(C)cc1 (stereo unspecified) |  | inactive: 2.2%
COc1ccc(C2NC(=O)NC(c3ccccc3)=C2c2nc3ccccc3s2)cc1 (stereo unspecified) | inconclusive: 29.1 µM [inhibitor, single point] | 
Cc1nn(C)c(Cl)c1CN1CCN(CCC(C)C)C(CCO)C1 (stereo unspecified) |  | inactive: -11.9%
CCOC(=O)CC/C(=N\NC(N)=O)c1ccc(OC)c(Cl)c1 |  | inactive: 29%
O=C(Nc1ccccc1)N1CCN(Cc2ccccc2)CC1 | inconclusive: 13 µM [activator, partial curve] | 
CCCCSc1nnc(-c2ccc(C)cc2)n1C | inconclusive: 11.2 µM [activator, partial curve, poor fit] | 
COc1cc(OC)cc(C(=O)Nc2ncn[nH]2)c1 |  | inactive: 15%
O=C(O)c1ccc(N=c2oc3cc(O)ccc3cc2C(=O)NCc2ccccc2)cc1 | inconclusive: 20.6 µM [activator, partial curve] | 
